{"sequences": {"note": "Amino acid sequences for entries named in this document (tags omitted). Residues count along the entry.", "UniProt Q16552, residues 24-155": "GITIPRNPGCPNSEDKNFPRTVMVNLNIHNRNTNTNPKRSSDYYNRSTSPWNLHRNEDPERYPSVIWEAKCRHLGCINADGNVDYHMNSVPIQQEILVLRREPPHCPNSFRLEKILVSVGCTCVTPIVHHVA"}, "source": "patent US20190256588A1", "binders": {"B1": {"name": "monoclonal antibody secreted by Clone No. 88 (antibody, V domains shown)", "VH": "DVQVQESGPGLVKPSQSLSLTCTVTGNSITSYYAWNWIRQFPGNKLEWMGYITYSGTTSYNPSLKSRISITRDTSKNQFFLQLNSVTTEDTATYYCAREEYDDIYAVDYWGQGTSVTVSS", "VL": "IIVMTQTPLSLPVSLGDQASISCRSSQSLVHSNGNTYLHWYLQKPGQSPKLLIYKVYNRFSGVPDRFSGSGSGTDFTLKISRVEAEDLGVYFCSQSTHFPTFGGGTKLEIK"}}, "target": "recombinant human IL-17A (human) (UniProt Q16552)", "experiment": "ELISA, human IL-17A coated on plate, hybridoma culture supernatant", "note": "No constants are given. Whether binding was seen depends on the method and setting. Some entries that bind do so weakly or less than the wild type."}
{"binder": "B1", "values": [{"measurement": "binding", "value": "binds"}]}
